Results are given in words; binding and its absence hold for the method and conditions named. In cells and extracts the contact can be indirect. Tags and fused reporters may be left off the sequences shown.
Biological target: T1, CHCHD2-Flag, Q9Y6H1
T1 chain: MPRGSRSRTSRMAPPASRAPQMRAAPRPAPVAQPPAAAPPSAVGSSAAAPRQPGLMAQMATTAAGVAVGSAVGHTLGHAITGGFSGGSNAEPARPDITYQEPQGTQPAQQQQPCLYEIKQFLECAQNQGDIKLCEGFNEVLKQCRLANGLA
Experiment: co-IP
Details: remark: other sources report otherwise

B1: SLP-2 (endogenous), Q9UJZ1 29-356 (protein)
chain: SSGLPRNTVVLFVPQQEAWVVERMGRFHRILEPGLNILIPVLDRIRYVQSLKEIVINVPEQSAVTLDNVTLQIDGVLYLRIMDPYKASYGVEDPEYAVTQLAQTTMRSELGKLSLDKVFRERESLNASIVDAINQAADCWGIRCLRYEIKDIHVPPRVKESMQMQVEAERRKRATVLESEGTRESAINVAEGKKQAQILASEAEKAEQINQAAGEASAVLAKAKAKAEAIRILAAALTQHNGDAAASLTVAEQYVSAFSKLAKDSNTILLPSNPGDVTSMVAQAMGVYGALTKAPVPGTPDSLSSGSSRDVQGTDASLDEELDRVKMS
binding: no binding
